Data on one molecule can be found in article PMC6370850.

Sequences of proteins named here, by UniProt entry; tags and fusion partners are left off.
UniProt P42227: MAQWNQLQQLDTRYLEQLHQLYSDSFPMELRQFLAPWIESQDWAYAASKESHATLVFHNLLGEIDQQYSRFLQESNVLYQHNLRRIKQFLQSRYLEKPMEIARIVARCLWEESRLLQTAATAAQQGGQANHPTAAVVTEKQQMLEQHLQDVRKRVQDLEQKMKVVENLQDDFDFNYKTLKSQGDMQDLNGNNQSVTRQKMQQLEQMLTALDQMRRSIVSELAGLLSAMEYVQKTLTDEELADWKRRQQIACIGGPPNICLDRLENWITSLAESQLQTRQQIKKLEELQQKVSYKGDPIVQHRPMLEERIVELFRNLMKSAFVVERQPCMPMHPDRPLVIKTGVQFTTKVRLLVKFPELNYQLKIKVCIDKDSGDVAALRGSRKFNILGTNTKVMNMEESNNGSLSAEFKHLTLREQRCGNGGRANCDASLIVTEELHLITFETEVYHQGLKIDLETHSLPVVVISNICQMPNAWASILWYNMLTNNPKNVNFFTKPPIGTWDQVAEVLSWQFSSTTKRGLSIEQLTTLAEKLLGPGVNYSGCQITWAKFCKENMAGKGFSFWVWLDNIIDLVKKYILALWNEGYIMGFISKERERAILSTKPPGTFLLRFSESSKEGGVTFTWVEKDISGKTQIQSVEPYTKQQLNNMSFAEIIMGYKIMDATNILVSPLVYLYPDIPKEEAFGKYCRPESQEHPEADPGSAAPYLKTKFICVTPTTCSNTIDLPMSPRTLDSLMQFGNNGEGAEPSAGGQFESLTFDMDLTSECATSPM

No constants are given. Whether binding was seen depends on the method and setting. In cells and extracts the contact can be indirect. These calls come from enrichment with a bait or labelling near it, and not all partners need be listed.

This test deals with Flag-Stat3 (mouse) (UniProt P42227). Kind of test: affinity purification with mass spectrometry; ANTI-FLAG M2 Affinity Gel immunoprecipitation from HEK293T cells co-transfected with HA-Ub and Flag-Stat3 or Flag-Malt1A, with or without Xpress-Hectd3; elution with 0.1 M glycine HCl pH 3.5; trypsin digestion, LC-MS/MS.

B1: Xpress-Hectd3 (enzyme, UniProt Q3U487 1-861)
chain: MAGPGPGAALESPRQLLGRVRFLAEAARSLRAGLPLPAALAFVPREVLYKLYKDPAGPSRVLLPVWEAEGLGLRVGAVGAAPGTGSGPLRAARDSIELRRGACVRTTGEELCNGHGLWVKLTKEQLAEHLSDCSLDEGWLLVCRPAEGGARLVPIDTPDHLQRQQQLFGVDYRPVLRWEQVVDLTYSHRLGSRPQPAEAYTEAIQRLLYVPPTWTYECDEDLIHFLYDHLGKEDENLGSVKQYVESIDVSSYTEEFNVSCLTDSNADTYWESDGSQCQHWVRLTMKKGTIVKKLLLTVDTTDDNFMPKRVVVYGGEGDNLKKLSDVNIDETLIGDVCVLEDMTVHLPIIEIRIVECRDDGIDVRLRGVKIKSSRQRELGLNADLFQPASLVRYPRLEGTDPEVLYRRAVLLQRFIKILDSVLHHLVPAWDHTLGTFSEIKQVKQFLLLSRQRPSLVAQCLRDSESSKPSFMPRLYINRRLAMEHRACPSRDPACKNAVFTQVYEGLKPSDKYEKPLDYRWPMRYDQWWECKFIAEGIIDQGGGFRDSLADMSEELCPSSADTPVPLPFFVRTANQGNGTGEARDMYVPNPSCRDFAKYEWIGQLMGAALRGKEFLVLALPGFVWKQLSGEEVSWSKDFPAVDSVLVKLLEVMEGVDKETFEFKFGKELTFTTVLSDQQVVELIPGGTGIVVEYEDRSRFIQLVRKARLEESKEQVAAMQAGLLKVVPQAVLDLLTWQELEKKVCGDPEVTVDALRKLTRFEDFEPSDTRVQYFWEALNNFTNEDRSRFLRFVTGRSRLPARIYIYPDKLGYETTDALPESSTCSSTLFLPHYASAKVCEEKLRYAAYNCVAIDTDMSPWEE
Regarding B1, the binding result is recorded as “binds”.
